# Results from paper PMC8660800.
# Chains of the proteins cited; added tags and fusions are not shown.
# UniProt Q9UFF9: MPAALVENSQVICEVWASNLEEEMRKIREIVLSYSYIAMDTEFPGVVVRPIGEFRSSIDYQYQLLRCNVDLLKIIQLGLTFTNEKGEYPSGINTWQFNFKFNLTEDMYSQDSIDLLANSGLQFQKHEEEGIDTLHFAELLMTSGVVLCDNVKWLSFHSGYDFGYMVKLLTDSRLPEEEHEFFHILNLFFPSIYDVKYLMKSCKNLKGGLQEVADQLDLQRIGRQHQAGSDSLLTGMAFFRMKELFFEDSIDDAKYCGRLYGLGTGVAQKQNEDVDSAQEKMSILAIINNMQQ
# UniProt Q9NZN8: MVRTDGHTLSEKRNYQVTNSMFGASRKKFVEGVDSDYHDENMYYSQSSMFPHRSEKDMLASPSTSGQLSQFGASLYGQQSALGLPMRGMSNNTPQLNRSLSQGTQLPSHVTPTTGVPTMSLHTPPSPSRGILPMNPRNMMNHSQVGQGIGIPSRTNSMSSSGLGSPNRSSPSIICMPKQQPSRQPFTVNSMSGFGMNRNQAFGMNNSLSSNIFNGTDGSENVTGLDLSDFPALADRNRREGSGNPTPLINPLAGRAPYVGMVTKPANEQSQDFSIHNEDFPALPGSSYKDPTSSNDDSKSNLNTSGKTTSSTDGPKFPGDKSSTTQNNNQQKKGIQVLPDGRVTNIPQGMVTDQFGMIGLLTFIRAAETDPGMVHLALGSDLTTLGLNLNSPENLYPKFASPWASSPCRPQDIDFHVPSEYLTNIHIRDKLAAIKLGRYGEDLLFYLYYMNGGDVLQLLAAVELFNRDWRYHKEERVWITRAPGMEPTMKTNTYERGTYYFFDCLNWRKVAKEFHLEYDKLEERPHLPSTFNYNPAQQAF
# UniProt P47756: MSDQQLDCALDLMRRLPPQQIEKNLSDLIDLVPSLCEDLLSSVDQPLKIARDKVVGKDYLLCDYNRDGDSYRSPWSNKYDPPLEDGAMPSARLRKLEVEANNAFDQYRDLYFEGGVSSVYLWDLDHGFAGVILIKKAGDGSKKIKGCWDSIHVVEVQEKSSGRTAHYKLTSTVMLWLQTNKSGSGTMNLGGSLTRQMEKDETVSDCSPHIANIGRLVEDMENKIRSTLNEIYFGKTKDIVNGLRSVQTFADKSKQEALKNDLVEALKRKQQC
# UniProt Q9C0C2: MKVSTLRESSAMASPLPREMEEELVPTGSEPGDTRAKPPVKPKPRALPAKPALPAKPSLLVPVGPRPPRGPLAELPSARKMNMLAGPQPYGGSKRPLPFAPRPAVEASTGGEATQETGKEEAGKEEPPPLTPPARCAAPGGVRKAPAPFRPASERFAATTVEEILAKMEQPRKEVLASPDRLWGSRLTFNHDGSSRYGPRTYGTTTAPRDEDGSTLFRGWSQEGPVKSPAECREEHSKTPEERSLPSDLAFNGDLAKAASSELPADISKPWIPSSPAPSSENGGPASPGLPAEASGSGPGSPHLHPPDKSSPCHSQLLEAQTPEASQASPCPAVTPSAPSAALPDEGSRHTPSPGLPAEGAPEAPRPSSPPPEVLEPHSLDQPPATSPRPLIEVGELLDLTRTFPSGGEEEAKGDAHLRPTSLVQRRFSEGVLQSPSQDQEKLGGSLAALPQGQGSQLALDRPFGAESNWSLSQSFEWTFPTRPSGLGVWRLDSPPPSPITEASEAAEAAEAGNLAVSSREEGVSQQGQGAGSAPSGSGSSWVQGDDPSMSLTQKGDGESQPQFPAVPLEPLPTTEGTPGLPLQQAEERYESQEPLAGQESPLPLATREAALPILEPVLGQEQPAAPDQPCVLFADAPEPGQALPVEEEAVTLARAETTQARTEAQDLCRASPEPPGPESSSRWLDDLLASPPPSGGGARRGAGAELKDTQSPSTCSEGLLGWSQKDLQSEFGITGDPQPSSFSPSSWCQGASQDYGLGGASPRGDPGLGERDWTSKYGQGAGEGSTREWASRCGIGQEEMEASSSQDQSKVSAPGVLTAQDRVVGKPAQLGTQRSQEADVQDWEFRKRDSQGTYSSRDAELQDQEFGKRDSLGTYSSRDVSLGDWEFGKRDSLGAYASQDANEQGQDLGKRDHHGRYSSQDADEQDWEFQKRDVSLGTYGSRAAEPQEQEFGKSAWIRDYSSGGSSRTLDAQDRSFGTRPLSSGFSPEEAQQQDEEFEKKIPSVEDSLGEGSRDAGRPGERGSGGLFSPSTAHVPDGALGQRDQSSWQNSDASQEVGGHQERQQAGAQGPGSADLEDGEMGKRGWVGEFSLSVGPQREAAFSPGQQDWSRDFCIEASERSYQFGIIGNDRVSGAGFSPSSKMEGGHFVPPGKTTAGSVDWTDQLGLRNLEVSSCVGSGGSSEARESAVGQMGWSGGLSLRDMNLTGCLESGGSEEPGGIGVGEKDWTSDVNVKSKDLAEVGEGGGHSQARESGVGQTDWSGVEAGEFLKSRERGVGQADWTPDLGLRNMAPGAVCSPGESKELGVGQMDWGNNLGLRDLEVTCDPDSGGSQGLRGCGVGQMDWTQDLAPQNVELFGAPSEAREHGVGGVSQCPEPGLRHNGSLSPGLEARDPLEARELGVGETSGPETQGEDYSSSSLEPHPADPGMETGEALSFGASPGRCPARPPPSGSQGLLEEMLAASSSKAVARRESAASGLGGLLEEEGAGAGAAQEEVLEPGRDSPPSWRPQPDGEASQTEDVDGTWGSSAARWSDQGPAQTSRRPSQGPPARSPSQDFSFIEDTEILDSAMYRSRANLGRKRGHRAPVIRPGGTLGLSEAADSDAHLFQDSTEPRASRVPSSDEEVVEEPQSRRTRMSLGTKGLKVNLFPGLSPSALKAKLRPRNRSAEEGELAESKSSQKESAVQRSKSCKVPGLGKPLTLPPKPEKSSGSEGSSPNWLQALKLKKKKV
# UniProt O75175: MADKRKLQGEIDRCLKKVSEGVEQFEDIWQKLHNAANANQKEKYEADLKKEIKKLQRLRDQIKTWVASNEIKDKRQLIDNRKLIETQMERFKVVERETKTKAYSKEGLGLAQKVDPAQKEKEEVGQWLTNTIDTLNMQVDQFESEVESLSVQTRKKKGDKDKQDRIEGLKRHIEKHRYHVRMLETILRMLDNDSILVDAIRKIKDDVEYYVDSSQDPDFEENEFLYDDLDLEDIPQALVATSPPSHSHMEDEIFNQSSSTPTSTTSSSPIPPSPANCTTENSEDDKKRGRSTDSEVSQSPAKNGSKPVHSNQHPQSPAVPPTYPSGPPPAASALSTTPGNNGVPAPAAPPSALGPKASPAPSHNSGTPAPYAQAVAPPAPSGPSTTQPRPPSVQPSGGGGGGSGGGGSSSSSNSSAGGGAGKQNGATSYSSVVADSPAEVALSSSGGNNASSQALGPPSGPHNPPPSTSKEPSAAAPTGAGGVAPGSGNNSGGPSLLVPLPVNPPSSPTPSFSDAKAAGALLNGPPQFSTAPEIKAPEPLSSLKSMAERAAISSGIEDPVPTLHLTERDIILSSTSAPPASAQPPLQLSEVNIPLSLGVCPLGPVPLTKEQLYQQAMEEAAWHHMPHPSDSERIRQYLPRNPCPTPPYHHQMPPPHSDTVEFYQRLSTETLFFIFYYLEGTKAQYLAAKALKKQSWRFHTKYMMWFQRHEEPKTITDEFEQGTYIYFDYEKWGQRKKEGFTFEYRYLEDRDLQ
# Results are given in words; binding and its absence hold for the method and conditions named. Binding seen in cells or lysates may run through a third protein. Here binding means that the protein was enriched with, or labelled near, the bait; the list need not be complete.
# B1: four and a half LIM domains protein 2 (FHL2), endogenous (protein, UniProt Q14192 1-279)
# chain: MTERFDCHHCNESLFGKKYILREESPYCVVCFETLFANTCEECGKPIGCDCKDLSYKDRHWHEACFHCSQCRNSLVDKPFAAKEDQLLCTDCYSNEYSSKCQECKKTIMPGTRKMEYKGSSWHETCFICHRCQQPIGTKSFIPKDNQNFCVPCYEKQHAMQCVQCKKPITTGGVTYREQPWHKECFVCTACRKQLSGQRFTARDDFAYCLNCFCDLYAKKCAGCTNPISGLGGTKYISFEERQWHNDCFNCKKCSLSLVGRGFLTERDDILCPDCGKDI
# Target: FST-NOT1 (endogenous NOT1 with an N-terminal 3xFLAG-2xStrep tag) (human (endogenous in HeLa)) (UniProt A5YKK6)
# Test: affinity purification with mass spectrometry; FLAG IP (anti-FLAG M2 magnetic beads) of endogenously tagged FST-NOT1 from HeLa clone #47 lysate, parental HeLa as negative control; 20 mM Tris-HCl pH 7.5, 150 mM NaCl, 0.05-0.1% NP-40, 4 °C; eluted with 3xFLAG peptide; label-free (n = 4) and SILAC with 20 nM RMD or DMSO for 16 h
molecule,measurement,value
"CNOT8, endogenous (from UniProt Q9UFF9 1-292)",binding,binds
"NOT2, endogenous (from UniProt Q9NZN8 1-540)",binding,binds
"CAPZB, endogenous (from UniProt P47756 1-272)",binding,binds
"TNKS1BP1, endogenous (from UniProt Q9C0C2 1-1729)",binding,binds
"CNOT3, endogenous (from UniProt O75175 1-753)",binding,binds
B1,binding,binds
